These are yes or no findings as the source states them, for the method shown. Some results given as binding are weak or reduced against the parent protein; the word gives no strength.
Target: T1, Gal4-hPXR (human) (UniProt O75469)
T1 sequence: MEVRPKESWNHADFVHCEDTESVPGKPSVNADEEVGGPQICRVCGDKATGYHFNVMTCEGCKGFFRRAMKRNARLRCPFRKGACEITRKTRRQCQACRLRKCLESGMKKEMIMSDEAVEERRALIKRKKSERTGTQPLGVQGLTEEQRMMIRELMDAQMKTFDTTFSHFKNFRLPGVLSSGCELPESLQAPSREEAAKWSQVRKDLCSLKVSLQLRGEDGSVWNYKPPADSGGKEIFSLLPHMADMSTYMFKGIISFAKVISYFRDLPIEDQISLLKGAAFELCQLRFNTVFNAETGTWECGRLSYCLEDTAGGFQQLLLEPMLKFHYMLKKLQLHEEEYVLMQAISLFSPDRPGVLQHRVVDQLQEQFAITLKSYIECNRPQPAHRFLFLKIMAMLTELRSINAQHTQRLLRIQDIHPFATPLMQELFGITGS
Experiment: two-hybrid; mammalian two-hybrid in U2OS cells, 17Mx5-Glob-LUC reporter; cells treated with DMSO, SR12813, EE2, TNC or EE2+TNC

Amino acid sequences for entries named in this document (tags omitted). Residues count along the entry.
UniProt Q15596, residues 624-869: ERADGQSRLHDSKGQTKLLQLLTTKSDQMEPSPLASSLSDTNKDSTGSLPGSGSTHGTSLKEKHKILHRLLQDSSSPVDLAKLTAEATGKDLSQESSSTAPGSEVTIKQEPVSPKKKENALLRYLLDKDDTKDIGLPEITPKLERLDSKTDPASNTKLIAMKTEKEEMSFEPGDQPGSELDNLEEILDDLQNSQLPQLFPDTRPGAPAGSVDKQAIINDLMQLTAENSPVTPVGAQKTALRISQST

In the case of “VP16 (activation domain)-TIF2 (amino acids 624-869 containing three LXXLL motifs) (from UniProt Q15596 624-869) (domain or fragment)”, the binding was “binds”.

— article PMC4569708, “Synergistic activation of human pregnane X receptor by binary cocktails of pharmaceutical and environmental compounds” (Nature Communications, 2015)
